Measured values reported in the supplement of paper PMC10849652.
The other results are listed elsewhere or left out. Residues, ends and D or L forms follow the SMILES beside them. *: point of attachment. Cbz = O=C(OCc1ccccc1)*

The chains behind the UniProt entries cited, without tags or fusion partners. Where a name states a change or a piece, a line headed by the entry shows the natural chain unless it says otherwise.
UniProt Q9Y6K0: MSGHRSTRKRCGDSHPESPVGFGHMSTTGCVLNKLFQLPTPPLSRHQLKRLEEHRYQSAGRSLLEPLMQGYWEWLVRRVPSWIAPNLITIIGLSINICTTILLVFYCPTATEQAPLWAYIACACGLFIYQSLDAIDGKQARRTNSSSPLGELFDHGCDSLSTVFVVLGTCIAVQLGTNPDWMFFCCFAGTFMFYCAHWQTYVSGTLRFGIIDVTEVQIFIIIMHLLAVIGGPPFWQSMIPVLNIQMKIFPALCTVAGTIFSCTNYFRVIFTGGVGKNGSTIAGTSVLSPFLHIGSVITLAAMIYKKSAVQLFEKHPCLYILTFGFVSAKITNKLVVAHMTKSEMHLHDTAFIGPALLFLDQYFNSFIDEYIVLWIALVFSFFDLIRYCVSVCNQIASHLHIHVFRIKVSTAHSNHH
UniProt Q9UHN6: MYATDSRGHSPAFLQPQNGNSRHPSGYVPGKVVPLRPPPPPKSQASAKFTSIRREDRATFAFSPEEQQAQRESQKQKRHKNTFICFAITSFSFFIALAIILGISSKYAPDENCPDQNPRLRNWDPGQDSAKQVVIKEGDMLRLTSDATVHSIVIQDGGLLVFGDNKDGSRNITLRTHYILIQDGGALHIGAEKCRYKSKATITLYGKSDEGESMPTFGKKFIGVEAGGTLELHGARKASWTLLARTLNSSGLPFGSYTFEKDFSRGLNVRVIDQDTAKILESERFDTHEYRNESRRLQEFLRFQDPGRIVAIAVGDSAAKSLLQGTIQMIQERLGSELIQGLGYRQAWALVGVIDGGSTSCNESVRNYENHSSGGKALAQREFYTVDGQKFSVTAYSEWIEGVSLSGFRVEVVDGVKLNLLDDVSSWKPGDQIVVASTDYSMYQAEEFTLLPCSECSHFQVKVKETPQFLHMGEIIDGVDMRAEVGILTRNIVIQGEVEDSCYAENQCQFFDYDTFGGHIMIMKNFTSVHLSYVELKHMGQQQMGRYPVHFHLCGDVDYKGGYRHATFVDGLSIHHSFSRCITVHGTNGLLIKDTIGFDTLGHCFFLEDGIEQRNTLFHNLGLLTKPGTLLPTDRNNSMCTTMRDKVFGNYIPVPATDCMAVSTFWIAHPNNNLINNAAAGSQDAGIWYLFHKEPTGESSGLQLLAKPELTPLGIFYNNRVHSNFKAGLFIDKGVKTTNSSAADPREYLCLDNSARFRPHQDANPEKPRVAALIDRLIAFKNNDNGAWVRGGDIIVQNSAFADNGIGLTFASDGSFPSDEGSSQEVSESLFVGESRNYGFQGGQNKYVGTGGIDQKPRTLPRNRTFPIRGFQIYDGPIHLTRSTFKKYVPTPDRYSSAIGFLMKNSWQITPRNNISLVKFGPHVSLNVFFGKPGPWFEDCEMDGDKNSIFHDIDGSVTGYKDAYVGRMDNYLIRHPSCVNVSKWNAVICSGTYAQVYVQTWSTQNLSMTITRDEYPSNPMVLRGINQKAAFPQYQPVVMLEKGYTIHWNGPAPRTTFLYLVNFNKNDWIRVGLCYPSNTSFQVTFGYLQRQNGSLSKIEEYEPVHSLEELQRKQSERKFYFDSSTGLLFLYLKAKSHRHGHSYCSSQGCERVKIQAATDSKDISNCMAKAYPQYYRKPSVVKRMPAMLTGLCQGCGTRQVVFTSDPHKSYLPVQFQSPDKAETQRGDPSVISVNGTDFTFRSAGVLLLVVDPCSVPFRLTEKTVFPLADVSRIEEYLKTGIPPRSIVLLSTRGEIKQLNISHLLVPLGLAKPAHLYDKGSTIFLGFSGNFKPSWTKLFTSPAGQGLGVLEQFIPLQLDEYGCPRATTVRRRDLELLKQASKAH
UniProt P41208: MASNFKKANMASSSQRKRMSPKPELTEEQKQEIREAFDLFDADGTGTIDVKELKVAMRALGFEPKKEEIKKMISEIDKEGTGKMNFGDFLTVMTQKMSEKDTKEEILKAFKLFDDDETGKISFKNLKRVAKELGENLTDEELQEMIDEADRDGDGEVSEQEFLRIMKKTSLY
UniProt Q96SZ6: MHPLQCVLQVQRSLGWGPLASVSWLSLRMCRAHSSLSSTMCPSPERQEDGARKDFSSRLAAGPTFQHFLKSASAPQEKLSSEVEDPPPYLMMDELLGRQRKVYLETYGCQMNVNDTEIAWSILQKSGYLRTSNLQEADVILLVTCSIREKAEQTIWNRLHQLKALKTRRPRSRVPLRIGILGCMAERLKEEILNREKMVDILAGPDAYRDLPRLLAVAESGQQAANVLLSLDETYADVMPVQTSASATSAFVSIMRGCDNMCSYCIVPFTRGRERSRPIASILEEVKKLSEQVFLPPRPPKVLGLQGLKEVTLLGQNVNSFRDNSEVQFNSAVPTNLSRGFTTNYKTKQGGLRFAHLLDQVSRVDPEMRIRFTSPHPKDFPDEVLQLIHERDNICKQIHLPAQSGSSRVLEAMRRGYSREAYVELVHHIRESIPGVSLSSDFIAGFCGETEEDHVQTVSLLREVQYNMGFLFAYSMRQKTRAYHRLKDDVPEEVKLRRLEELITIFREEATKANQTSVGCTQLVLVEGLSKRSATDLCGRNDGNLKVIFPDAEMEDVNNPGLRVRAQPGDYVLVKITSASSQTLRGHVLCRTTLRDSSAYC
UniProt Q96G28: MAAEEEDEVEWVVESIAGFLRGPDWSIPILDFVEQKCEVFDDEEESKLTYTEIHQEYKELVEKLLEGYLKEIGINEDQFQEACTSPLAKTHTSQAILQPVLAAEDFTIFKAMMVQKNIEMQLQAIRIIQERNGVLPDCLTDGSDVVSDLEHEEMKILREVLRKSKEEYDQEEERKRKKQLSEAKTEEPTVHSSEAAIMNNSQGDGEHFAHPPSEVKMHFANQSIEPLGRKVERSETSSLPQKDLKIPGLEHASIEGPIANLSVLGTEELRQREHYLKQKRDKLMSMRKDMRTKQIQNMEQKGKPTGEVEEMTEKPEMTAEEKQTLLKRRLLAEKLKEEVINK
UniProt O15182: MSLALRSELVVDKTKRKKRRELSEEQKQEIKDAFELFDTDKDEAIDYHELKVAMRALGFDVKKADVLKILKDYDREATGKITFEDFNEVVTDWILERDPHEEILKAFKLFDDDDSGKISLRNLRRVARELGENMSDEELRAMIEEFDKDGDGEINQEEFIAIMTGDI
UniProt Q00587: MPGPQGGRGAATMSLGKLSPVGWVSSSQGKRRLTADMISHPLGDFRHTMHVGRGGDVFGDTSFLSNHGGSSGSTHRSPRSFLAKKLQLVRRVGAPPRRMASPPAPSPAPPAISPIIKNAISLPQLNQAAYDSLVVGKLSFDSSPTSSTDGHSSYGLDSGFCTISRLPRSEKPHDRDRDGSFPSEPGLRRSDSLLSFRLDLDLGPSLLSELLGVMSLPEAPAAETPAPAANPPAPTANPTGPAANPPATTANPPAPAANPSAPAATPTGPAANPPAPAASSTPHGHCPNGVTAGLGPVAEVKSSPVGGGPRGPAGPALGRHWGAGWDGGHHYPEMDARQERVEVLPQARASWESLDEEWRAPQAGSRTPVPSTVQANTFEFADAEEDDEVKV
UniProt P06493, whole entry, looked up: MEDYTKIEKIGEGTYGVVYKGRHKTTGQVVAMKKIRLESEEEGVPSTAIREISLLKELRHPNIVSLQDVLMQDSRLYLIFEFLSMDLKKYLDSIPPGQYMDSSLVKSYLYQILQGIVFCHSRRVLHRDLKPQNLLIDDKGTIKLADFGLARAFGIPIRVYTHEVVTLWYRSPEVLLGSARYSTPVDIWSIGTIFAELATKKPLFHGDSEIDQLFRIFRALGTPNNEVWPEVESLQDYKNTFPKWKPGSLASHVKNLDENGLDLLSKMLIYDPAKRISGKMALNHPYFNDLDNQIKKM
UniProt Q9Y5S2: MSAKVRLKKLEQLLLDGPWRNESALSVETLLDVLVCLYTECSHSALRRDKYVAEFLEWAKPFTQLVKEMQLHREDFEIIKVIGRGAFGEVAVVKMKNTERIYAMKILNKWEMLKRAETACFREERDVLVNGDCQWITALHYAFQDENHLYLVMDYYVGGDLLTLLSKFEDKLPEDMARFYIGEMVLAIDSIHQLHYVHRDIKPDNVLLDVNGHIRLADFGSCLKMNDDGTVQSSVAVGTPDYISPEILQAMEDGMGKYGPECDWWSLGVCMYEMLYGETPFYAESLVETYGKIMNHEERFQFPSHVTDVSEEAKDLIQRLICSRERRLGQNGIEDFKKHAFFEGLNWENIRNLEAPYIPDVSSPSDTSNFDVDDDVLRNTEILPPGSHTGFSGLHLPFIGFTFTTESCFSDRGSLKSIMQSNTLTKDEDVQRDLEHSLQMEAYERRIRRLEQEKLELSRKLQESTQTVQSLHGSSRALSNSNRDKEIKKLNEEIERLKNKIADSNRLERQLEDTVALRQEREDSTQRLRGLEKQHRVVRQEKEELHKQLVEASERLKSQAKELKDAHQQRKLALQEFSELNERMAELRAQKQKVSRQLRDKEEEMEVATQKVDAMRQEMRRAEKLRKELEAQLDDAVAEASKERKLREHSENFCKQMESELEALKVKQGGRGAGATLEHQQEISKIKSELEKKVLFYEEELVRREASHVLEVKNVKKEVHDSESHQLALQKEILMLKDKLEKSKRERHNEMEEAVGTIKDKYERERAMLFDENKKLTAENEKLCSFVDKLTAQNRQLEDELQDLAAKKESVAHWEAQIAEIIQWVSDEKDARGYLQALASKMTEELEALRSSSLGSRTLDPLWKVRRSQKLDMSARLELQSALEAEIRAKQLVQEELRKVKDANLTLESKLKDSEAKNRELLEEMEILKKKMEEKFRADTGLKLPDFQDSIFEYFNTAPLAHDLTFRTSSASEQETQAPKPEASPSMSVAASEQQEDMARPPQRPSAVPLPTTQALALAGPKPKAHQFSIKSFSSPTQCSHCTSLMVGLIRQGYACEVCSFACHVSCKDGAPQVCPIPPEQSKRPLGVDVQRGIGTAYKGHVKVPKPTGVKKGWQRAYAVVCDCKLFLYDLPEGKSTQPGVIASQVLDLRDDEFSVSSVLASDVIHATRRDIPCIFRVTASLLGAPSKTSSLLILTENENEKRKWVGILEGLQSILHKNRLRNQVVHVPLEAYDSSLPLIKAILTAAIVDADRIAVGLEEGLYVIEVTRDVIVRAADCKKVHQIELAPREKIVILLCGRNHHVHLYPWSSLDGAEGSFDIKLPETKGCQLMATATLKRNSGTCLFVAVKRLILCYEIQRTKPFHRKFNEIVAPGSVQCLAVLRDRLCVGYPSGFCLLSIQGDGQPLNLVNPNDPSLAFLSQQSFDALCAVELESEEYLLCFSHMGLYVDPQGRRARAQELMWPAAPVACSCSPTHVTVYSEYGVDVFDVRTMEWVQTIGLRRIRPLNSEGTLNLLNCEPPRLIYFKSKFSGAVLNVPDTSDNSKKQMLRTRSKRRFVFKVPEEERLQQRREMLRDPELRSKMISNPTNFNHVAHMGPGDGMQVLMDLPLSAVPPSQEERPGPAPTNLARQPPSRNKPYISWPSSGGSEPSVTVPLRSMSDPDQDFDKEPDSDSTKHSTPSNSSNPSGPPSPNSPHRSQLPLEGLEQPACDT
UniProt Q96JM3: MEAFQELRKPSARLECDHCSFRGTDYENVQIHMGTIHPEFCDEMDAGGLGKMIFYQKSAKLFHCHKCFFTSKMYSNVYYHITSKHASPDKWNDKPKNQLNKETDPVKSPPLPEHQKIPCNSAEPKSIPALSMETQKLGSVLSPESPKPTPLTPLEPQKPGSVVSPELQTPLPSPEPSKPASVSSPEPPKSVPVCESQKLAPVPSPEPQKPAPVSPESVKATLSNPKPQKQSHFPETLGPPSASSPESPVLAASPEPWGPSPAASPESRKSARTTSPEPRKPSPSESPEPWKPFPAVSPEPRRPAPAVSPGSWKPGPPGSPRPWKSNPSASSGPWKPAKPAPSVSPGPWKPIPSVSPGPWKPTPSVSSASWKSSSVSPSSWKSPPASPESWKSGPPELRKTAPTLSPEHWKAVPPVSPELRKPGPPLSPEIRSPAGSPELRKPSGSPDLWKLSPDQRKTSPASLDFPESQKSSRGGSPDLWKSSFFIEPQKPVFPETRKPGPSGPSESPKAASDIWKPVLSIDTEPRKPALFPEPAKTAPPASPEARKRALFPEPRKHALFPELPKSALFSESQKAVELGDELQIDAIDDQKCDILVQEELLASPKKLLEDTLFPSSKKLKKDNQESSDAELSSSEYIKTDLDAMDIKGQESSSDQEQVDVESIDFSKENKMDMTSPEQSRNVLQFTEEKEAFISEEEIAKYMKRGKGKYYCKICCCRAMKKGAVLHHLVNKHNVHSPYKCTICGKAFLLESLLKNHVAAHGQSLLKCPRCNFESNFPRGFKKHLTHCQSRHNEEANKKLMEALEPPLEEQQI

Columns and labels:
Assay in all cases: log2 fold change, soluble protein after heating vs DMSO (PISA); higher = thermal stabilisation; K562 cells, 10 uM, 30 min; active = over 0.2 and 3.5 SD of the protein, either way, in both replicates (recomputed)
[1] = compound: C#Cc1cccc(Nc2ncnc3cc(OCCOC)c(OCCOC)cc23)c1 [erlotinib]
Summary of the method: (§1)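 Aliquots of K562 cells (2×10^6 cells/mL) treated with 10 μM compound for 30 min were heated for 3 min over 48°C-58°C. After pooling and extraction in PBS with 0.5% NP-40 at 4°C, soluble protein from a 21,000xg, 90 min spin was quantified by TMTpro 16plex LC-MS/MS with channel sums equalised. Thermal stability is expressed against control samples, from duplicates, as a log2 fold change.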

[2] = compound: C/C(=N\NC(=O)C1=CC(=CC=C1)S(=O)(=O)N2CCOCC2)/C3=C(C=CC(=C3)Cl)O
Summary of the method: as §1

[3] = compound: C1=CC(=C(C=C1Cl)C2=NC3=NC=CN=C3C(=N2)NC4=CC=NC=C4)F
Summary of the method: as §1

[4] = compound: C1=CC(=CC=C1C2=NC3=C(N2)C=C(C=C3)C(=O)N)OC4=CC=C(C=C4)Cl
Summary of the method: as §1

[5] = compound: C1=CC2=C(C=CC(=C2)/C=C\3/C(=O)NC(=NCC4=CC=CS4)S3)N=C1
Summary of the method: as §1

[6] = compound: C1=CC2=NC=CN=C2C=C1/C=C/3\C(=O)NC(=O)S3
Summary of the method: as §1

[7] = compound: C1=CC=C(C=C1)C2=NC(=C(N2)C3=CC=NC=C3)C4=CC(=C(C=C4)Cl)O
Summary of the method: as §1

[8] = compound: C1=CC=C2C(=C1)C3=NNC4=CC=CC(=C43)C2=O
Summary of the method: as §1

[9] = compound: C1CCN(C1)C(=O)NC2=CC=CC(=C2)NC3=NC=C(C(=N3)NCCC4=CN=CN4)Br
Summary of the method: as §1

[10] = compound: C1CN(CCC1(CC2=CC=C(C=C2)Cl)N)C3=NC=NC4=C3C=CN4
Summary of the method: as §1

[11] = compound: C1COCCN1CCN2C3=CC=CC=C3N=C2NC(=O)C4=CC(=CC=C4)[N+](=O)[O-] [IRAK-1-4 Inhibitor I]
Summary of the method: as §1

[12] = compound: C=CC(=O)N1CCC[C@@H](n2nc(-c3ccc(Oc4ccccc4)cc3)c3c(N)ncnc32)C1 [ibrutinib]
Summary of the method: as §1

[13] = compound: CC(=O)c1cnc2ccc(-c3cc(Cl)c(O)c(Cl)c3)nc2c1N[C@H]1CC[C@H](CN(C)C)CC1
Summary of the method: as §1

[14] = compound: CC(C)(C)Cn1c(N)nc2ccc(-c3[nH]c(C(C)(C)C)nc3-c3ccc(F)cc3)nc21 [ralimetinib]
Summary of the method: as §1

[15] = compound: CC(C)(O)CC(=O)NCCn1ccc2ncnc(Nc3ccc(Oc4cccc(C(F)(F)F)c4)c(Cl)c3)c21
Summary of the method: as §1

[16] = compound: CC(C)C1=C2N=C(C=C(N2N=C1)NCC3=CC=CC=C3)NCCCCCCN
Summary of the method: as §1

[17] = compound: CC(C)C[C@@H](C=O)NC(=O)[C@H](CC(C)C)NC(=O)[C@H](CC(C)C)NC(=O)OCc1ccccc1
Summary of the method: as §1

[18] = compound: CC(C)N(C[C@H]1O[C@@H](n2cnc3c(N)ncnc32)[C@H](O)[C@@H]1O)[C@H]1C[C@@H](CCc2nc3cc(C(C)(C)C)ccc3[nH]2)C1 [pinometostat]
Summary of the method: as §1

[19] = compound: CC1=C(C2=C(C=C1)C(=O)C3=CC=CC=C3N2CCCN)C
Summary of the method: as §1

Measured: log2 fold change

CEPT1 (UniProt Q9Y6K0)
active: [16] -0.466
inactive: [1] 0.099 | [2] 0.034 | [3] 0.016 | [4] 0.107 | [5] 0.037 | [6] 0.047 | [7] 0.011 | [8] 0.071 | [9] 0.007 | [10] -0.074 | [11] 0.035 | [12] -0.014 | [13] 0.072 | [14] -0.026 | [15] 0.073 | [17] -0.118 | [18] -0.016 | [19] 0.118

CEMIP2 (UniProt Q9UHN6)
inactive: [1] 0.076 | [2] 0.018 | [3] -0.042 | [4] 0.001 | [5] 0.087 | [6] 0.029 | [7] -0.071 | [8] -0.066 | [9] 0.084 | [10] 0.041 | [11] 0 | [12] 0.096 | [13] -0.045 | [14] -0.023 | [15] -0.026 | [16] 0.122 | [17] 0.11 | [18] -0.035 | [19] 0.057

CETN2 (UniProt P41208)
inactive: [1] 0.121 | [2] -0.015 | [3] -0.002 | [4] 0.017 | [5] -0.058 | [6] 0.03 | [7] -0.058 | [8] -0.113 | [9] 0.039 | [10] 0.049 | [11] -0.067 | [12] 0.006 | [13] -0.019 | [14] -0.012 | [15] 0.074 | [16] 0.17 | [17] 0.043 | [18] 0.011 | [19] -0.045

CDK5RAP1 (UniProt Q96SZ6)
active: [2] -0.555
inactive: [1] 0.076 | [3] 0.046 | [4] -0.025 | [5] 0.134 | [6] -0.03 | [7] 0.069 | [8] 0.078 | [9] 0.072 | [10] -0.029 | [11] -0.067 | [12] 0.018 | [13] 0.111 | [14] -0.057 | [15] -0.055 | [16] -0.066 | [17] -0.015 | [18] 0.025 | [19] 0.099

CFAP36 isoform 2 (UniProt Q96G28)
inactive: [1] 0.048 | [2] -0.11 | [3] -0.046 | [4] 0.005 | [5] 0.059 | [6] 0.042 | [7] -0.068 | [8] 0.007 | [9] 0.127 | [10] -0.111 | [11] -0.183 | [12] -0.022 | [13] 0.001 | [14] 0.053 | [15] -0.012 | [16] -0.09 | [17] 0.065 | [18] 0.024 | [19] 0.103

CHKA (UniProt P35790)
inactive: [1] 0.012 | [2] -0.008 | [3] 0.036 | [4] -0.018 | [5] 0.001 | [6] -0.119 | [7] 0.069 | [8] -0.188 | [9] 0.005 | [10] -0.021 | [11] -0.034 | [12] 0 | [13] 0.085 | [14] 0.006 | [15] 0.057 | [16] 0.113 | [17] 0.019 | [18] 0.088 | [19] 0.079

Copied from the entries so far (2 entries):
CFAP36 isoform 2 (UniProt Q96G28)
inactive: [1] 0.048 | [2] -0.11 | [3] -0.046 | [4] 0.005 | [5] 0.059 | [6] 0.042 | [7] -0.068 | [8] 0.007 | [9] 0.127 | [10] -0.111 | [11] -0.183 | [12] -0.022 | [13] 0.001 | [14] 0.053 | [15] -0.012 | [16] -0.09 | [17] 0.065 | [18] 0.024 | [19] 0.103

CHKA (UniProt P35790)
inactive: [1] 0.012 | [2] -0.008 | [3] 0.036 | [4] -0.018 | [5] 0.001 | [6] -0.119 | [7] 0.069 | [8] -0.188 | [9] 0.005 | [10] -0.021 | [11] -0.034 | [12] 0 | [13] 0.085 | [14] 0.006 | [15] 0.057 | [16] 0.113 | [17] 0.019 | [18] 0.088 | [19] 0.079

Following part.

CETN3 (UniProt O15182)
inactive: [1] -0.098 | [2] 0.009 | [3] -0.065 | [4] -0.022 | [5] 0.027 | [6] 0.077 | [7] -0.12 | [8] -0.055 | [9] 0.041 | [10] -0.125 | [11] 0.031 | [12] -0.022 | [13] -0.006 | [14] -0.075 | [15] 0.035 | [16] -0.038 | [17] 0.039 | [18] 0.016 | [19] -0.18

CDC42EP1 (UniProt Q00587)
active: [13] -0.527 | [16] -0.43
inactive: [1] 0.09 | [2] 0.063 | [3] 0.006 | [4] 0.115 | [5] 0.136 | [6] -0.011 | [7] -0.005 | [8] -0.086 | [9] -0.133 | [10] -0.001 | [11] 0.097 | [12] 0.086 | [14] 0.076 | [15] -0.104 | [17] -0.009 | [18] -0.043 | [19] -0.055

CDK1 (UniProt P06493)
active: [13] -0.401
inactive: [1] 0.045 | [2] 0.06 | [3] 0.021 | [4] 0.003 | [5] -0.054 | [6] 0.018 | [7] 0.003 | [8] -0.003 | [9] 0.007 | [10] -0.009 | [11] 0 | [12] -0.046 | [14] -0.031 | [15] -0.051 | [16] -0.02 | [17] 0.051 | [18] 0 | [19] -0.021

CHD4 isoform 2 (UniProt Q14839)
inactive: [1] 0.042 | [2] 0.103 | [3] -0.011 | [4] -0.007 | [5] 0.029 | [6] 0.034 | [7] 0.044 | [8] -0.08 | [9] -0.047 | [10] -0.1 | [11] -0.198 | [12] -0.106 | [13] -0.215 | [14] 0.112 | [15] -0.067 | [17] 0.045 | [18] 0.07 | [19] -0.057
active: [16] -0.313

CDC42BPB (UniProt Q9Y5S2)
active: [13] -0.637
inactive: [1] -0.005 | [2] 0.221 | [3] -0.071 | [4] 0.069 | [5] -0.047 | [6] 0.027 | [7] -0.024 | [8] 0.04 | [9] 0.017 | [10] -0.221 | [11] -0.022 | [12] -0.167 | [14] 0.124 | [15] 0.023 | [16] -0.063 | [17] -0.009 | [18] 0.267 | [19] 0.023

CDK5RAP3 isoform 4 (UniProt Q96JB5)
inactive: [1] 0.089 | [2] 0.027 | [3] 0.042 | [4] -0.017 | [5] 0.01 | [6] 0.023 | [7] 0.033 | [8] 0.041 | [9] -0.003 | [10] -0.068 | [11] -0.051 | [12] -0.068 | [13] -0.005 | [14] -0.015 | [15] -0.062 | [16] -0.056 | [17] -0.002 | [18] 0.017 | [19] 0.009

CHAMP1 (UniProt Q96JM3)
active: [19] -0.23
inactive: [1] 0.083 | [2] 0.004 | [3] 0.075 | [4] 0.03 | [5] 0.023 | [6] 0.014 | [7] -0.01 | [8] -0.06 | [9] 0.004 | [10] 0.064 | [11] 0.047 | [12] 0.066 | [13] -0.207 | [14] 0.033 | [15] -0.036 | [16] -0.047 | [17] -0.015 | [18] 0.034

CDK8 (UniProt P49336)
inactive: [1] -0.098 | [2] -0.094 | [3] -0.161 | [4] 0.028 | [5] -0.023 | [6] 0.102 | [7] -0.087 | [8] 0.287 | [9] -0.044 | [10] 0.034 | [11] 0.006 | [12] -0.011 | [14] -0.174 | [15] -0.15 | [16] -0.067 | [17] 0.096 | [18] -0.057 | [19] -0.005
active: [13] 0.487

CDC42BPA isoform 6 (UniProt Q5VT25)
inactive: [1] -0.081 | [2] 0.115 | [3] -0.022 | [4] 0.008 | [5] -0.337 | [6] -0.011 | [7] 0.03 | [8] 0.073 | [9] -0.03 | [10] -0.396 | [11] -0.025 | [12] -0.09 | [14] 0.094 | [15] -0.02 | [16] -0.193 | [17] 0.043 | [18] 0.029 | [19] 0.132
active: [13] -1.07

CHCHD1 (UniProt Q96BP2)
inactive: [1] -0.034 | [2] -0.007 | [3] -0.048 | [4] 0.027 | [5] -0.135 | [6] -0.003 | [7] -0.057 | [8] 0.039 | [9] 0.022 | [10] -0.091 | [11] -0.071 | [12] 0.119 | [13] -0.009 | [14] -0.117 | [15] 0.026 | [16] -0.027 | [17] 0.037 | [18] -0.021 | [19] -0.19

CFAP97 (UniProt Q9P2B7)
inactive: [1] -0.088 | [2] 0.027 | [3] -0.183 | [4] -0.012 | [5] -0.002 | [6] -0.363 | [7] 0.187 | [8] 0.017 | [9] 0.056 | [10] 0.046 | [11] 0.033 | [12] 0.046 | [13] -0.057 | [14] 0.256 | [15] 0.057 | [16] -0.08 | [17] 0.104 | [18] 0.022 | [19] -0.109
